Measured values from patent publication US20150073033A1, “BIOMARKERS FOR CANCER CHARACTERIZATION AND TREATMENT” (Board of Regents, The University of Texas System, priority 2011, published 2015).
Results are given in words; binding and its absence hold for the method and conditions named. Binding seen in cells or lysates may run through a third protein. Some entries that bind do so weakly or less than the wild type.

Sequences of proteins named here, by UniProt entry; tags and fusion partners are left off. A change or cut given only in a name is not applied to a line headed by its entry.
UniProt O43684: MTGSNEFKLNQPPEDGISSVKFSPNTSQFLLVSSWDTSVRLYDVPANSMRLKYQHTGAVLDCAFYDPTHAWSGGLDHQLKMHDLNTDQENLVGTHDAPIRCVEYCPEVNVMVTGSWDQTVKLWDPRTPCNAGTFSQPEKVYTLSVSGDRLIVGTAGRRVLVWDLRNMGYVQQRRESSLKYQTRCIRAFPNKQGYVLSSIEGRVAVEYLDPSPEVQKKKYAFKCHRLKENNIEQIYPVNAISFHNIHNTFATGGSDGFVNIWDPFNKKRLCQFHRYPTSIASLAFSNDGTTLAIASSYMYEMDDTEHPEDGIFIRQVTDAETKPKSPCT
UniProt O43683: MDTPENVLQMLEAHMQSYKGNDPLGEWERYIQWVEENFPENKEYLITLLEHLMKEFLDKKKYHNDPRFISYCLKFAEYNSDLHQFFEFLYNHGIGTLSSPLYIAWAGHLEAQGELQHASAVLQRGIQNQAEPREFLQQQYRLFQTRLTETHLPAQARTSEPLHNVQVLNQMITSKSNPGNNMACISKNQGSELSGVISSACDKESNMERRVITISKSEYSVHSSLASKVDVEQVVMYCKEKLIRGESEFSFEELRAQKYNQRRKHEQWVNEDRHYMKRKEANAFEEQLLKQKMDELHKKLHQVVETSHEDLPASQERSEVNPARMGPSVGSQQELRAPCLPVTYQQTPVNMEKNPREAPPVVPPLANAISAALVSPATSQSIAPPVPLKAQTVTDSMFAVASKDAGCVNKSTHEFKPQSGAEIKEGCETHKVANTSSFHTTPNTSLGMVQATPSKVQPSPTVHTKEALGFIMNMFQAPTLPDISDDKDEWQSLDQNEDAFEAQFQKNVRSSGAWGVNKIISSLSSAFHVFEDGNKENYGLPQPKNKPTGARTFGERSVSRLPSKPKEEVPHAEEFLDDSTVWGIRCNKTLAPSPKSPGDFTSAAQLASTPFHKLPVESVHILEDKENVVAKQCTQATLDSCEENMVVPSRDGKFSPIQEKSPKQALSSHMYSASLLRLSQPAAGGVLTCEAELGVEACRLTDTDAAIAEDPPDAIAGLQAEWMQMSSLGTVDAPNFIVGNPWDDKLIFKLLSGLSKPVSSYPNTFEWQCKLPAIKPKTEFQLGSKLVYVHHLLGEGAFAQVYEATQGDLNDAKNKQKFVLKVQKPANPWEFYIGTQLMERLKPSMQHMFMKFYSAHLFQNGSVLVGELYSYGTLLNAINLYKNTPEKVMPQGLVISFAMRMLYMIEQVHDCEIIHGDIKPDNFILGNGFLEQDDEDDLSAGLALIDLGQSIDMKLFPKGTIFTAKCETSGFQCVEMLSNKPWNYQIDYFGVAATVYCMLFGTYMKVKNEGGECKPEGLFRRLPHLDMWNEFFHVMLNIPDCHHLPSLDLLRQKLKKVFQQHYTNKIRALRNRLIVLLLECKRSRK
UniProt P14618: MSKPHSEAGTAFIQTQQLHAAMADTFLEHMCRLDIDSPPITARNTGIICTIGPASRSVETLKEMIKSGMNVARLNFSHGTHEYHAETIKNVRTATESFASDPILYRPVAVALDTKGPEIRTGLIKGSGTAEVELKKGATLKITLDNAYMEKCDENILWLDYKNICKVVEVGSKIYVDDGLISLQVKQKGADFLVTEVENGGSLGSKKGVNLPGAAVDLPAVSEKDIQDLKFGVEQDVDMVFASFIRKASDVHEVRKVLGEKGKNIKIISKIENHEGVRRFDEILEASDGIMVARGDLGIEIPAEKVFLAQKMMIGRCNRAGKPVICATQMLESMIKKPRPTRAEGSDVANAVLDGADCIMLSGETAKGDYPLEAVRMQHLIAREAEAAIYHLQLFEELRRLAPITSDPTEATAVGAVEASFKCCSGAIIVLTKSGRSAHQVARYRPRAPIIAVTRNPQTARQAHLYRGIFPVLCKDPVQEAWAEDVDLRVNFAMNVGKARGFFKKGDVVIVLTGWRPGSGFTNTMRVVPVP
UniProt Q02156: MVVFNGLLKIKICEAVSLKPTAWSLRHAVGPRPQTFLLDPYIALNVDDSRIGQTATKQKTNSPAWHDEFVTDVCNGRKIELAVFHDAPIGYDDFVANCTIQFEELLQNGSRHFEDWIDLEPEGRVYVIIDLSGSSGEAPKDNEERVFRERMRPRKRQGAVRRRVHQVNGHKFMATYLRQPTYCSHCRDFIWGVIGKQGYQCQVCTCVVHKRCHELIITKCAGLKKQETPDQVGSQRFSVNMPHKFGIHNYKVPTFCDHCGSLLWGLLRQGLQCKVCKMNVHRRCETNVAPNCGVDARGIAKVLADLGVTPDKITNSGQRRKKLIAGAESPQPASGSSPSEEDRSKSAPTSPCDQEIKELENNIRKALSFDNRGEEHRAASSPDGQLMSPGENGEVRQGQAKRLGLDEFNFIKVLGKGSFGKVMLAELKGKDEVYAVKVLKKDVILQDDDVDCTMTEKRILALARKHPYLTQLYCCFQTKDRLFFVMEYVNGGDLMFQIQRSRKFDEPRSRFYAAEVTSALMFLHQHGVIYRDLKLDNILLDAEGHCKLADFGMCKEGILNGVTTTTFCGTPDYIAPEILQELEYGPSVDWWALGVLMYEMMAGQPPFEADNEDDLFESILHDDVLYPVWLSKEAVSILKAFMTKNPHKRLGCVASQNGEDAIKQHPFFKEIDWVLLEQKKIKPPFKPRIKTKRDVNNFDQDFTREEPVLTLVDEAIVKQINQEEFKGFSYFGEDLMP
UniProt P52294: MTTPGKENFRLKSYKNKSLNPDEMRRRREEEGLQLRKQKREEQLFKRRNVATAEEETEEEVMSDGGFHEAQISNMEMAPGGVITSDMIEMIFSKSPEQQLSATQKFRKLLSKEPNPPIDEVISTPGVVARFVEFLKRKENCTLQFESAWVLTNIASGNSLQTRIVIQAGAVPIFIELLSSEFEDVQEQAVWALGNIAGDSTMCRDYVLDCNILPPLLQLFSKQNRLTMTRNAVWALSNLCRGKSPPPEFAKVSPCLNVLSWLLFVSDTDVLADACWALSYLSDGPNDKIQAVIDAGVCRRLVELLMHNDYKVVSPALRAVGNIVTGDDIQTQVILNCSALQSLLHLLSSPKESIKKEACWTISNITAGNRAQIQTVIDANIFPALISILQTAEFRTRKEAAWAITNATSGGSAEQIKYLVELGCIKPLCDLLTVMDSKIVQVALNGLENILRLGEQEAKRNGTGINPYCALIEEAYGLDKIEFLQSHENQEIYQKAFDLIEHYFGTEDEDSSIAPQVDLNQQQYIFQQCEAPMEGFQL

Legend:
[1] = biological target: T1, endogenous IKKβ (U87/EGFR or U251 cells) (human) (UniProt O14920); experiment: co-IP of membrane fractions, EGF-treated cells
T1 sequence (looked up): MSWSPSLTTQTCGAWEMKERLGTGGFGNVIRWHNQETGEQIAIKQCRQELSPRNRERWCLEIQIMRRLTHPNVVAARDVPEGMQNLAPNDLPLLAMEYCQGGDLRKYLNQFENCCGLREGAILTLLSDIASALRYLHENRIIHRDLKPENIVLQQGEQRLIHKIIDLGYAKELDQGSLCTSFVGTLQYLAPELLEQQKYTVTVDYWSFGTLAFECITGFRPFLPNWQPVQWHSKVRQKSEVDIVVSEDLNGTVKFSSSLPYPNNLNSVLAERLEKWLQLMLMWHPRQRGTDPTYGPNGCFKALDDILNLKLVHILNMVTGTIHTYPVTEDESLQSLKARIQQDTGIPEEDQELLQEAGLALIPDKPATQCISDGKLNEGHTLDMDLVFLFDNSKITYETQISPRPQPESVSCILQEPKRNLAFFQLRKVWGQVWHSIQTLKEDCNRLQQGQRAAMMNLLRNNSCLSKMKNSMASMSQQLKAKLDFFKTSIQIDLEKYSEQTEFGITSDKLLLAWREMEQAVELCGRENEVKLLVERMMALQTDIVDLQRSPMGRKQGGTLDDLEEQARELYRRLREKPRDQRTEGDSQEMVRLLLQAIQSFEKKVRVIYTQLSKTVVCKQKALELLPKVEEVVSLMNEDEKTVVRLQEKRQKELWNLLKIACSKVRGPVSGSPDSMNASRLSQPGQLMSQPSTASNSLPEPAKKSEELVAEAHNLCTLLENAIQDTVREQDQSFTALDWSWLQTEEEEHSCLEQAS

[2] = biological target: purified recombinant GST-Bub3 (wild type) (UniProt O43684); experiment: GST pull-down, purified recombinant proteins
[3] = biological target: purified recombinant GST-Bub3 (wild type) (UniProt O43684); experiment: GST pull-down and co-IP (figure legend)
[4] = biological target: purified recombinant His-Bub1 (UniProt O43683); experiment: GST pull-down, purified proteins
[5] = biological target: FLAG-tagged wild-type PKM2 (human) (UniProt P14618); experiment: GST pull-down from lysates of EGF-treated U87/EGFR cells

endogenous PKCε (U87/EGFR or U251 cells) (from UniProt Q02156 1-737) (enzyme)
binding [1]: binds

purified recombinant His-PKM2 (wild type) (from UniProt P14618 1-531) (enzyme)
binding [2]: binds
binding [3]: binds

purified recombinant GST-Bub3 Y207F (from UniProt O43684 1-328)
binding [4]: binds

purified recombinant GST-Bub3 (wild type) (from UniProt O43684 1-328)
binding [4]: binds

purified GST-importin α5 (from UniProt P52294 1-538)
binding [5]: binds
